Assay results: US20240132546A1 (Molecular Partners, published 2024)
Results are given in words; binding and its absence hold for the method and conditions named. Some binding calls cover weakened binding; strength is not graded here. Each block holds one binder with its values, some of them ahead of it.

Key:
[1] = target: T1, biotinylated full-length HER2 (human, UniProt P04626 23-652, limits assumed, biotinylated (site not stated)); experiment: SPR, single trace, 500 nM analyte over biotinylated HER2 on the chip, double-referenced
T1 construct: Immobilised on the SPR chip; also called bio-HER2; Human Epidermal Growth Factor Receptor 2

[2] = target: T1, biotinylated full-length HER2; experiment: SPR single trace, biotinylated HER2 on chip, analyte 500 nM

binding [1]: binds | binding [2]: binds
B1: parental DARPin11 (designed binder)
chain: DLGIKLLFAAAKGQDDEVRELLKAGADVNAKDFQGVTPLHIAAQSGHLEIVEVLLKAGADVNAKDVTGDTPLHLAAQHGHLEIVEVLLKAGADVNAQDERGWTPADLAADWGHEDIAEVLQKAA

binding [2]: binds
B2: parental DARPin06 (designed binder)
chain: DLGKKLLEAARAGQDDEVRELLKAGADVNAKDEYGLTPLYLATAHGHLEIVEVLLKAGADVNAVDAIGFTPLHLAAFIGHLEIAEVLLKAGADVNAQDKFGKTPADIAAGAGNEDIAEVLQKAA

binding [2]: binds
B3: DARPin11-GSGSC-DTPA (designed binder)
chain: DLGIKLLFAAAKGQDDEVRELLKAGADVNAKDFQGVTPLHIAAQSGHLEIVEVLLKAGADVNAKDVTGDTPLHLAAQHGHLEIVEVLLKAGADVNAQDERGWTPADLAADWGHEDIAEVLQKAAGSGSC
modifications: maleimide-DTPA coupled to the C-terminal Cys of the GSGSC tag
notes: Parent; His-TEV tag cleaved off; possible N-terminal GS not included; also called construct 11; DTPA coupled parental DARPin11

binding [2]: binds
B4: DARPin06-GSGSC-DTPA (designed binder)
chain: DLGKKLLEAARAGQDDEVRELLKAGADVNAKDEYGLTPLYLATAHGHLEIVEVLLKAGADVNAVDAIGFTPLHLAAFIGHLEIAEVLLKAGADVNAQDKFGKTPADIAAGAGNEDIAEVLQKAAGSGSC
modifications: maleimide-DTPA coupled to the C-terminal Cys of the GSGSC tag
notes: Parent; also called construct 6; DTPA coupled parental DARPin06
